From US11149020B2, “MAP kinase modulators and uses thereof” (The Trustees of Columbia University in the City of New York, priority 2013, dated 2021)

Assays:
APP/PS1 mice [1] = experiment: Fear conditioning (contextual and cued) in APP/PS1 mice; conditions: 2.5 mg/kg, daily, oral gavage
APP/PS1 mice [2] = experiment: Control tests (open field, sensory threshold, visible platform) in APP/PS1 mice; format: in vivo, mouse; conditions: 2.5 mg/kg, daily, oral gavage

| Structure (SMILES) | cued fear memory in APP/PS1 mice (APP/PS1 mice [1]) | open field and sensory threshold in APP/PS1 mice (APP/PS1 mice [2]) | visible platform performance in APP/PS1 mice (APP/PS1 mice [2]) |
| --- | --- | --- | --- |
| c1ccc2c(-c3nnc(C4CC4)cc3-c3ccncc3)cccc2c1 [7 (MW-077), 6-cyclopropyl-3-(naphthalen-1-yl)-4-(pyridin-4-yl)pyridazine] | do not affect cued fear memory | do not affect anxiety status of the animal and its ability to feel the noxious stimulus | do not affect performance with visible platform tasks |
| c1ccc2cc(-c3nnc(C4CC4)cc3-c3ccncc3)ccc2c1 [9 (MW-125), 6-Cyclopropyl-4-(pyridin-4-yl)-3-(naphthalen-2-yl)pyridazine] | do not affect cued fear memory | do not affect anxiety status of the animal and its ability to feel the noxious stimulus | do not affect performance with visible platform tasks |
| CN1CCN(c2cc(-c3ccncc3)c(-c3ccc4ccccc4c3)nn2)CC1 [27 (MW-150), 6-(4-methylpiperazine-1-yl)-3-(naphthalen-2-yl)-4-(pyridin-4-yl)pyridazine] | do not affect cued fear memory | do not affect anxiety status of the animal and its ability to feel the noxious stimulus | do not affect performance with visible platform tasks |

Some compounds share one wording; it may come from a single statement.
